According to patent publication US12435294B2, “Prevention of the oxidation of perfumery raw materials and food raw materials” (Firmenich SA, priority 2018, dated 2025):

Test: Appearance / color change of treated samples compared to untreated
Details: Petitgrain oil; 0.2 mL in 10 mL

Question: With `COCCOCCN(CCOCCOC)CCOCCOC.COCCOCCN(CCOCCOC)CCOCCOC.O=C(O)CCC(=O)C(=O)O` [AKG-diTMEEA] as the molecule, how does the “Appearance of Treated Compared to Untreated Sample” value read?
Answer: Clear, same color
